Consider 1 molecule from article PMC8619434 (Viruses, 2021).

One data set has as its system 293T-ACE2 cells. The settings on record: 10 µM.
The test system of data set [1] is SARS-CoV-2 spike protein pseudovirus. In kind it is cell-based. The settings on record: 10 µM; read-out: % infectivity (Table S3, kite-shaped molecules in order of inhibition).

As for `CN1c2ccccc2C(NCCCCCCC(=O)[O-])c2ccc(Cl)cc2S1(=O)=O.[Na+]` (centres unmarked) [Tianeptine sodium], in the data set with 293T-ACE2 cells, the “% viability (Table S3)” value was determined as 102. Further, in data set [1], the activity was 94.8%.
